In patent US20180312608A1:
Results are given in words; binding and its absence hold for the method and conditions named. Some results given as binding are weak or reduced against the parent protein; the word gives no strength.

Sequences of proteins named here, by UniProt entry; tags and fusion partners are left off. A change or cut given only in a name is not applied to a line headed by its entry. A line that says so, or that is headed by a name, gives the form on record, which may keep a tag or linker.
solubilized PHF (paired helical filament Tau) from human AD brain (P10636, form named): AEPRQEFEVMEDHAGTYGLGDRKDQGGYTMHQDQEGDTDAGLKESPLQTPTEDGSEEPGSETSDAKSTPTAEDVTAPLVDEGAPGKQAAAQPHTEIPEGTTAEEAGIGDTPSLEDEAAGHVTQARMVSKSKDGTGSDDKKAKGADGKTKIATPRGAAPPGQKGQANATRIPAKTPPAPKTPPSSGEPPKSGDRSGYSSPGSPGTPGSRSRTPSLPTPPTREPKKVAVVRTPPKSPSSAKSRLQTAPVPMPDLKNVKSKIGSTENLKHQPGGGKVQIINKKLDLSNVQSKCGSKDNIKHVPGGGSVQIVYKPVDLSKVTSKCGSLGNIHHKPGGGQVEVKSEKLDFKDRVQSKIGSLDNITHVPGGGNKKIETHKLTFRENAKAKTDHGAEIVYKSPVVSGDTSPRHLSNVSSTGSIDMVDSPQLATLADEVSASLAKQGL

Target: Antibody 4E6G7
Assay: competition ELISA: antibody pre-incubated with solubilized PHF in solution, then added to wells coated with solubilized PHF; competitor = plate-coated solubilized PHF [Panel F]

binding: binds
Substance: solubilized PHF (paired helical filament Tau) from human AD brain (from UniProt P10636 2-441)
